Values of other authors, collected in patent US8349888B2, “Phytoestrogenic isoflavone compositions, their preparation and use thereof for protection against and treatment of radiation injury” (priority 2000, dated 2013).
Some results were stated once for a whole list of compounds, not compound by compound. For at least one compound, name, drawing or mass did not settle the structure.

System: mice
Conditions: given orally, intravenously or intramuscularly

O=c1cc(-c2ccc(O)cc2)oc2c([C@@H]3O[C@H](CO)[C@@H](O)[C@H](O)[C@H]3O)c(O)c([C@@H]3O[C@H](CO)[C@@H](O)[C@H](O)[C@H]3O)c(O)c12 [vicenin]
protection: 30-35%
